B1: PUF60 (protein, UniProt Q9UHX1 1-559, looked up)
Poly(U)-binding-splicing …: MATATIALQVNGQQGGGSEPAAAAAVVAAGDKWKPPQGTDSIKMENGQSTAAKLGLPPLTPEQQEALQKAKKYAMEQSIKSVLVKQTIAHQQQQLTNLQMAAVTMGFGDPLSPLQSMAAQRQRALAIMCRVYVGSIYYELGEDTIRQAFAPFGPIKSIDMSWDSVTMKHKGFAFVEYEVPEAAQLALEQMNSVMLGGRNIKVGRPSNIGQAQPIIDQLAEEARAFNRIYVASVHQDLSDDDIKSVFEAFGKIKSCTLARDPTTGKHKGYGFIEYEKAQSSQDAVSSMNLFDLGGQYLRVGKAVTPPMPLLTPATPGGLPPAAAVAAAAATAKITAQEAVAGAAVLGTLGTPGLVSPALTLAQPLGTLPQAVMAAQAPGVITGVTPARPPIPVTIPSVGVVNPILASPPTLGLLEPKKEKEEEELFPESERPEMLSEQEHMSISGSSARHMVMQKLLRKQESTVMVLRNMVDPKDIDDDLEGEVTEECGKFGAVNRVIIYQEKQGEEEDAEIIVKIFVEFSIASETHKAIQALNGRWFAGRKVVAEVYDQERFDNSDLSA
B2: API5 (protein, UniProt Q9BZZ5 2-524, looked up)
Apoptosis inhibitor 5: PTVEELYRNYGILADATEQVGQHKDAYQVILDGVKGGTKEKRLAAQFIPKFFKHFPELADSAINAQLDLCEDEDVSIRRQAIKELPQFATGENLPRVADILTQLLQTDDSAEFNLVNNALLSIFKMDAKGTLGGLFSQILQGEDIVRERAIKFLSTKLKTLPDEVLTKEVEELILTESKKVLEDVTGEEFVLFMKILSGLKSLQTVSGRQQLVELVAEQADLEQTFNPSDPDCVDRLLQCTRQAVPLFSKNVHSTRFVTYFCEQVLPNLGTLTTPVEGLDIQLEVLKLLAEMSSFCGDMEKLETNLRKLFDKLLEYMPLPPEEAENGENAGNEEPKLQFSYVECLLYSFHQLGRKLPDFLTAKLNAEKLKDFKIRLQYFARGLQVYIRQLRLALQGKTGEALKTEENKIKVVALKITNNINVLIKDLFHIPPSYKSTVTLSWKPVQKVEIGQKRASEDTTSGSPPKKSSAGPKRDARQIYNPPSGKYSSNLGNFNYEQRGAFRGSRGGRGWGTRGNRSRGRLY
B3: HNRNPH2 (protein, UniProt P55795 1-449, looked up)
Heterogeneous nuclear …: MMLSTEGREGFVVKVRGLPWSCSADEVMRFFSDCKIQNGTSGIRFIYTREGRPSGEAFVELESEEEVKLALKKDRETMGHRYVEVFKSNSVEMDWVLKHTGPNSPDTANDGFVRLRGLPFGCSKEEIVQFFSGLEIVPNGMTLPVDFQGRSTGEAFVQFASQEIAEKALKKHKERIGHRYIEIFKSSRAEVRTHYDPPRKLMAMQRPGPYDRPGAGRGYNSIGRGAGFERMRRGAYGGGYGGYDDYGGYNDGYGFGSDRFGRDLNYCFSGMSDHRYGDGGSSFQSTTGHCVHMRGLPYRATENDIYNFFSPLNPMRVHIEIGPDGRVTGEADVEFATHEDAVAAMAKDKANMQHRYVELFLNSTAGTSGGAYDHSYVELFLNSTAGASGGAYGSQMMGGMGLSNQSSYGGPASQQLSGGYGGGYGGQSSMSGYDQVLQENSSDYQSNLA
B4: KTN1 (protein, UniProt Q86UP2 1-1357, looked up)
Kinectin: MEFYESAYFIVLIPSIVITVIFLFFWLFMKETLYDEVLAKQKREQKLIPTKTDKKKAEKKKNKKKEIQNGNLHESDSESVPRDFKLSDALAVEDDQVAPVPLNVVETSSSVRERKKKEKKQKPVLEEQVIKESDASKIPGKKVEPVPVTKQPTPPSEAAASKKKPGQKKSKNGSDDQDKKVETLMVPSKRQEALPLHQETKQESGSGKKKASSKKQKTENVFVDEPLIHATTYIPLMDNADSSPVVDKREVIDLLKPDQVEGIQKSGTKKLKTETDKENAEVKFKDFLLSLKTMMFSEDEALCVVDLLKEKSGVIQDALKKSSKGELTTLIHQLQEKDKLLAAVKEDAAATKDRCKQLTQEMMTEKERSNVVITRMKDRIGTLEKEHNVFQNKIHVSYQETQQMQMKFQQVREQMEAEIAHLKQENGILRDAVSNTTNQLESKQSAELNKLRQDYARLVNELTEKTGKLQQEEVQKKNAEQAATQLKVQLQEAERRWEEVQSYIRKRTAEHEAAQQDLQSKFVAKENEVQSLHSKLTDTLVSKQQLEQRLMQLMESEQKRVNKEESLQMQVQDILEQNEALKAQIQQFHSQIAAQTSASVLAEELHKVIAEKDKQIKQTEDSLASERDRLTSKEEELKDIQNMNFLLKAEVQKLQALANEQAAAAHELEKMQQSVYVKDDKIRLLEEQLQHEISNKMEEFKILNDQNKALKSEVQKLQTLVSEQPNKDVVEQMEKCIQEKDEKLKTVEELLETGLIQVATKEEELNAIRTENSSLTKEVQDLKAKQNDQVSFASLVEELKKVIHEKDGKIKSVEELLEAELLKVANKEKTVQDLKQEIKALKEEIGNVQLEKAQQLSITSKVQELQNLLKGKEEQMNTMKAVLEEKEKDLANTGKWLQDLQEENESLKAHVQEVAQHNLKEASSASQFEELEIVLKEKENELKRLEAMLKERESDLSSKTQLLQDVQDENKLFKSQIEQLKQQNYQQASSFPPHEELLKVISEREKEISGLWNELDSLKDAVEHQRKKNNDLREKNWEAMEALASTEKMLQDKVNKTSKERQQQVEAVELEAKEVLKKLFPKVSVPSNLSYGEWLHGFEKKAKECMAGTSGSEEVKVLEHKLKEADEMHTLLQLECEKYKSVLAETEGILQKLQRSVEQEENKWKVKVDESHKTIKQMQSSFTSSEQELERLRSENKDIENLRREREHLEMELEKAEMERSTYVTEVRELKDLLTELQKKLDDSYSEAVRQNEELNLLKAQLNETLTKLRTEQNERQKVAGDLHKAQQSLELIQSKIVKAAGDTTVIENSDVSPETESSEKETMSVSLNQTVTQLQQLLQAVNQQLTKEKEHYQVLE
B5: RBM34 (protein, UniProt P42696 1-430, looked up)
RNA-binding protein 34: MALEGMSKRKRKRSVQEGENPDDGVRGSPPEDYRLGQVASSLFRGEHHSRGGTGRLASLFSSLEPQIQPVYVPVPKQTIKKTKRNEEEESTSQIERPLSQEPAKKVKAKKKHTNAEKKLADRESALASADLEEEIHQKQGQKRKNSQPGVKVADRKILDDTEDTVVSQRKKIQINQEEERLKNERTVFVGNLPVTCNKKKLKSFFKEYGQIESVRFRSLIPAEGTLSKKLAAIKRKIHPDQKNINAYVVFKEESAATQALKRNGAQIADGFRIRVDLASETSSRDKRSVFVGNLPYKVEESAIEKHFLDCGSIMAVRIVRDKMTGIGKGFGYVLFENTDSVHLALKLNNSELMGRKLRVMRSVNKEKFKQQNSNPRLKNVSKPKQGLNFTSKTAEGHPKSLFIGEKAVLLKTKKKGQKKSGRPKKQRKQK
B6: SHMT1 (protein, UniProt P34896 1-483, looked up)
Serine …: MTMPVNGAHKDADLWSSHDKMLAQPLKDSDVEVYNIIKKESNRQRVGLELIASENFASRAVLEALGSCLNNKYSEGYPGQRYYGGTEFIDELETLCQKRALQAYKLDPQCWGVNVQPYSGSPANFAVYTALVEPHGRIMGLDLPDGGHLTHGFMTDKKKISATSIFFESMPYKVNPDTGYINYDQLEENARLFHPKLIIAGTSCYSRNLEYARLRKIADENGAYLMADMAHISGLVAAGVVPSPFEHCHVVTTTTHKTLRGCRAGMIFYRKGVKSVDPKTGKEILYNLESLINSAVFPGLQGGPHNHAIAGVAVALKQAMTLEFKVYQHQVVANCRALSEALTELGYKIVTGGSDNHLILVDLRSKGTDGGRAEKVLEACSIACNKNTCPGDRSALRPSGLRLGTPALTSRGLLEKDFQKVAHFIHRGIELTLQIQSDTGVRATLKEFKERLAGDKYQAAVQALREEVESFASLFPLPGLPDF
B7: CHCHD3 (protein, UniProt Q9NX63 2-227, looked up)
MICOS complex subunit MIC19: GGTTSTRRVTFEADENENITVVKGIRLSENVIDRMKESSPSGSKSQRYSGAYGASVSDEELKRRVAEELALEQAKKESEDQKRLKQAKELDRERAAANEQLTRAILRERICSEEERAKAKHLARQLEEKDRVLKKQDAFYKEQLARLEERSSEFYRVTTEQYQKAAEEVEAKFKRYESHPVCADLQAKILQCYRENTHQTLKCSALATQYMHCVNHAKQSMLEKGG
B8: ATP2B1 (protein, UniProt P20020 2-1220, looked up)
Plasma membrane …: GDMANNSVAYSGVKNSLKEANHDGDFGITLAELRALMELRSTDALRKIQESYGDVYGICTKLKTSPNEGLSGNPADLERREAVFGKNFIPPKKPKTFLQLVWEALQDVTLIILEIAAIVSLGLSFYQPPEGDNALCGEVSVGEEEGEGETGWIEGAAILLSVVCVVLVTAFNDWSKEKQFRGLQSRIEQEQKFTVIRGGQVIQIPVADITVGDIAQVKYGDLLPADGILIQGNDLKIDESSLTGESDHVKKSLDKDPLLLSGTHVMEGSGRMVVTAVGVNSQTGIIFTLLGAGGEEEEKKDEKKKEKKNKKQDGAIENRNKAKAQDGAAMEMQPLKSEEGGDGDEKDKKKANLPKKEKSVLQGKLTKLAVQIGKAGLLMSAITVIILVLYFVIDTFWVQKRPWLAECTPIYIQYFVKFFIIGVTVLVVAVPEGLPLAVTISLAYSVKKMMKDNNLVRHLDACETMGNATAICSDKTGTLTMNRMTVVQAYINEKHYKKVPEPEAIPPNILSYLVTGISVNCAYTSKILPPEKEGGLPRHVGNKTECALLGLLLDLKRDYQDVRNEIPEEALYKVYTFNSVRKSMSTVLKNSDGSYRIFSKGASEIILKKCFKILSANGEAKVFRPRDRDDIVKTVIEPMASEGLRTICLAFRDFPAGEPEPEWDNENDIVTGLTCIAVVGIEDPVRPEVPDAIKKCQRAGITVRMVTGDNINTARAIATKCGILHPGEDFLCLEGKDFNRRIRNEKGEIEQERIDKIWPKLRVLARSSPTDKHTLVKGIIDSTVSDQRQVVAVTGDGTNDGPALKKADVGFAMGIAGTDVAKEASDIILTDDNFTSIVKAVMWGRNVYDSISKFLQFQLTVNVVAVIVAFTGACITQDSPLKAVQMLWVNLIMDTLASLALATEPPTESLLLRKPYGRNKPLISRTMMKNILGHAFYQLVVVFTLLFAGEKFFDIDSGRNAPLHAPPSEHYTIVFNTFVLMQLFNEINARKIHGERNVFEGIFNNAIFCTIVLGTFVVQIIIVQFGGKPFSCSELSIEQWLWSIFLGMGTLLWGQLISTIPTSRLKFLKEAGHGTQKEEIPEEELAEDVEEIDHAERELRRGQILWFRGLNRIQTQIRVVNAFRSSLYEGLEKPESRSSIHNFMTHPEFRIEDSEPHIPLIDDTDAEDDAPTKRNSSPPPSPNKNNNAVDSGIHLTIEMNKSATSSSPGSPLHSLETSL

Test system: mSWI/SNF complexes
Experiment: mSWI/SNF complex purification with HA-tagged baits and mass spectrometry (peptide counts)
Design: species or system human
Settings: 293_HA-BRD7: HA-BRD7 bait purification, total peptide count per co-purified protein

Molecule | Total
B1 | 22

Same assay, conditions: 293_HA-BRD7: HA-BRD7 bait purification, unique peptide count per co-purified protein

Molecule | Unique
B1 | 19

Same assay, conditions: 293_HA-BRD7 bait purification, mass spectrometry; total peptides per co-purified protein

Molecule | Total
B1 | 2
B2 | 2
B3 | 2
B4 | 2
B5 | 2
B6 | 2
B7 | 2
B8 | 2

Same assay, conditions: 293_HA-BRD7 bait purification, mass spectrometry; unique peptides per co-purified protein

Molecule | Unique
B1 | 2
B2 | 2
B3 | 2
B4 | 2
B5 | 2
B6 | 2
B7 | 2
B8 | 2

From patent US12729225B2, “Non-canonical SWI/SNF complex and uses thereof” (Dana-Farber Cancer Institute, Inc., priority 2018, dated 2026)
